Taken from: PubChem BioAssay AID1224831 (NIAID, 2016)

- Purpose: 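Genes that support or restrain LPS-induced TNF-alpha reporter activity in macrophage-like cells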 (follow-up of hits)
- System: human THP-1 B5 monocytic leukaemia cells carrying a TNF promoter luciferase reporter, made macrophage-like with PMA
- Reagents: single siRNA against human genes, 50 nM
- Timing: about 68 h of knock-down, then 4 h LPS
- Treatment: LPS (Salmonella minnesota, TLR-grade) at 10 ng/ml for 4 h; PMA 5 ng/ml present during knock-down
- Measurement: 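Firefly to renilla luciferase ratio of a TNF promoter reporter after 4 h LPS, scaled to plate median, turned into robust z-score, averaged over replicates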
- Direction: TNF reporter z-score: higher = stronger LPS-induced TNF reporter signal; z-score, median over gene's siRNAs: higher = stronger TNF reporter signal across the gene's siRNAs
- Active means: 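Two-sided call: reduced or raised TNF reporter signal counts as active once mean z reaches about -1 or below, or about 1.5 or above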
- Calls: active = changed TNF reporter (either direction); inactive = little change
In all, the deposit lists about 3,500 reagents; shown is a random part of them. Of all reagents, 731 (21%) are marked active. 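Active means either lowered or raised reporter signal; the gene-median score did not drive the per-siRNA calls.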 Entries without a mark were called inactive. Reagents against one gene are numbered here. No sequences are given here.

For SAC3D1 (SAC3 domain containing 1) #1, how do the results read?
TNF reporter z-score, replicate mean: 1.33; z-score, median over gene's siRNAs: 0.69

With SAC3D1 (SAC3 domain containing 1) #2, how do the results read?
TNF reporter z-score, replicate mean: -0.03; z-score, median over gene's siRNAs: 0.69

What did the screen give for SAC3D1 (SAC3 domain containing 1) #3?
TNF reporter z-score, replicate mean: 0.73; z-score, median over gene's siRNAs: 0.69

For SAC3D1 (SAC3 domain containing 1) #4, what was measured?
TNF reporter z-score, replicate mean: 0.28; z-score, median over gene's siRNAs: 0.69

What is on record for SAC3D1 (SAC3 domain containing 1) #5?
TNF reporter z-score, replicate mean: 0.65; z-score, median over gene's siRNAs: 0.69

With SAC3D1 (SAC3 domain containing 1) #6, what was measured?
TNF reporter z-score, replicate mean: 0.75; z-score, median over gene's siRNAs: 0.69

What did the screen give for OR14I1 (olfactory receptor family 14 subfamily I member 1) #1?
TNF reporter z-score, replicate mean: 0.18; z-score, median over gene's siRNAs: 0.5

For OR14I1 (olfactory receptor family 14 subfamily I member 1) #2, what was measured?
TNF reporter z-score, replicate mean: 1.1; z-score, median over gene's siRNAs: 0.5

For OR14I1 (olfactory receptor family 14 subfamily I member 1) #3, what was measured?
TNF reporter z-score, replicate mean: -0.15; z-score, median over gene's siRNAs: 0.5

With OR14I1 (olfactory receptor family 14 subfamily I member 1) #4, what was measured?
TNF reporter z-score, replicate mean: 0.11; z-score, median over gene's siRNAs: 0.5

For OR14I1 (olfactory receptor family 14 subfamily I member 1) #5, what does the deposit list?
TNF reporter z-score, replicate mean: 1.01; z-score, median over gene's siRNAs: 0.5

What did the screen give for OR14I1 (olfactory receptor family 14 subfamily I member 1) #6?
TNF reporter z-score, replicate mean: 0.82; z-score, median over gene's siRNAs: 0.5

What did the screen give for HLA-DQA2 (major histocompatibility complex, class II, DQ alpha 2) #1?
TNF reporter z-score, replicate mean: -1.08 (active); z-score, median over gene's siRNAs: 0.08

Which result is listed for HLA-DQA2 (major histocompatibility complex, class II, DQ alpha 2) #2?
TNF reporter z-score, replicate mean: 0.24; z-score, median over gene's siRNAs: 0.08

For HLA-DQA2 (major histocompatibility complex, class II, DQ alpha 2) #3, what does the deposit list?
TNF reporter z-score, replicate mean: 0.66; z-score, median over gene's siRNAs: 0.08

What did the screen give for HLA-DQA2 (major histocompatibility complex, class II, DQ alpha 2) #4?
TNF reporter z-score, replicate mean: -1.44 (active); z-score, median over gene's siRNAs: 0.08

For HLA-DQA2 (major histocompatibility complex, class II, DQ alpha 2) #5, what does the deposit list?
TNF reporter z-score, replicate mean: -0.08; z-score, median over gene's siRNAs: 0.08

What is on record for HLA-DQA2 (major histocompatibility complex, class II, DQ alpha 2) #6?
TNF reporter z-score, replicate mean: 0.64; z-score, median over gene's siRNAs: 0.08
